Our source for the binding values is PMC7648202.

These are yes or no findings as the source states them, for the method shown. Some entries that bind do so weakly or less than the wild type. Where a sequence is shown, tags or fusion partners need not be part of it.

For this experiment, the target named is T1, mature TCMP‐2 protein fused to the GAL4 DNA‐binding domain (pGBKT7‐BD) (tomato (Solanum lycopersicum)) (UniProt P14903).
T1 sequence: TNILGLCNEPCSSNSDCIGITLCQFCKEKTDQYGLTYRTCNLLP
As to the kind of experiment: two-hybrid; Matchmaker Gold system; bait GAL4 BD fusion in Y2H Gold, prey AD fusions in Y187, mated; 30°C for 3 days; selection on SD/-Leu/-Trp/-His/-Ade/X-Gal/Aureobasidin A plus 10 mM 3-AT.

B1: AtmiP1b full‐length ORF fused to the Gal4‐activation domain (pGADT7‐AD) (protein, UniProt Q9LRM4 1-121)
chain: MCRGLNNEESRRSDGGGCRSLCTRPSVPVRCELCDGDASVFCEADSAFLCRKCDRWVHGANFLAWRHVRRVLCTSCQKLTRRCLVGDHDFHVVLPSVTTVGETTVENRSEQDNHEVPFVFL
On to B1, for which the binding result is on record as “binds”.
